# From the supplement of paper PMC3334620
# The full ranking holds about 33,000 sequences; the median of “E-score (-0.5 to 0.5)” is about -0.0059, and the highest 2% start at about 0.26. The list shows a part of the results.
# Target: T1, Cin5 (UniProt P40917)
# T1 sequence: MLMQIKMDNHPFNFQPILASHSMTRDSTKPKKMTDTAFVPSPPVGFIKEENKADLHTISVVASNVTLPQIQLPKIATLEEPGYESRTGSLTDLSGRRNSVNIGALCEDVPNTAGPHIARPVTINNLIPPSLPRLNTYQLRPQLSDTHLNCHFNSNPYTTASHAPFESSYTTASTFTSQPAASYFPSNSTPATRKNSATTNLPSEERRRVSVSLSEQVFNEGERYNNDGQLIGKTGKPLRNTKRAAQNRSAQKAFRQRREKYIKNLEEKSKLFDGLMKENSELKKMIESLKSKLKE
# Test: PBM E-score (8-mer binding enrichment) (E-score (-0.5 to 0.5)); higher = stronger / more preferred TF binding
# Details: protein concentration: 100 nM; construct: GST-full length
# Protocol: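 Universal 'all 10-mer' protein binding microarrays (Agilent AMADID 015681) probed with GST-tagged S. cerevisiae TFs (full-length or DBD) made by in vitro transcription/translation (PURExpress), about 100-200 nM. Bound TF was detected with fluorescent anti-GST. Each ungapped 8-mer (which stands for itself and its reverse complement) is scored by the PBM enrichment score (E-score), a modified Wilcoxon-Mann-Whitney statistic from -0.5 to +0.5, computed with the Universal PBM Analysis Suite. Scale: above 0.35 generally sequence-specific binding.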
row,Sequence,PBM E-score
1,GGACTGAC,-0.188
2,AATCAGAA,0.145
3,ACCCCCCG,-0.443
4,ACTATTTC,0.228
5,GACTAGTA,0.0219
6,TCGGACGA,-0.0197
7,ACTAAAAT,0.223
8,AGCAACTG,0.0467
9,CTATTCCA,0.215
10,ATGCGGCG,0.0727
11,AATCCAGA,0.218
12,GTCCTGAA,-0.197
13,CTGGACAC,-0.252
14,AACATTCT,0.0562
15,AACTCGTG,0.0764
16,AAACTGTT,0.189
17,CAGAAGAA,-0.0652
18,AGCCCGGG,-0.183
19,AATCGCCC,-0.116
20,AGGATCAT,-0.136
21,GCGGGGTA,0.0248
22,TACAATGA,-0.0302
23,GGTGAGGA,-0.0487
24,CTAAATAA,0.0261
25,GCAATCAA,0.195

row,Sequence,PBM E-score
1,CCGCGACA,0.0648
2,ATTACCCC,-0.0139
3,TAGCAAGA,-0.0558
4,ATTTGGAC,0.0481
5,GCTACTAC,0.222
6,CGGTCATA,0.0647
7,AAGCACGT,0.109
8,GGTAGGAC,-0.121
9,AGGTCACG,-0.107
10,ATAGCGGC,0.00766
11,ATATTAGC,0.128
12,AATGACAC,0.115
13,CCTAGCAC,-0.215
14,CCGGACAG,-0.0739
15,CATAGAGA,0.0311
16,CAATTACA,0.242
17,ACCACCGC,-0.0868
18,AATGGCAA,0.0889
19,AGACGCTA,-0.199
20,CCCGGAAG,-0.0981
21,CCCGCCTC,-0.142
22,ACTATAGC,-0.138
23,CTGTACAC,-0.0408
24,ACGTTCAC,0.0656
25,CGGAAATC,0.137

row,Sequence,PBM E-score
1,CTCGACGC,0.0204
2,TAAGATTA,0.274
3,CCAGATGG,-0.193
4,CCATCTAC,0.0768
5,CGCAAAGA,0.143
6,ATTAATGC,0.19
7,ACCCGCTC,-0.209
8,GAATGCAC,0.0534
9,CACAAGAG,-0.00984
10,ATGGATCG,0.0514
11,GCTGCTCA,-0.141
12,AGAACTAC,0.0709
13,CACCGCTG,-0.298
14,GAAGCCAA,-0.0726
15,CAGCATGC,-0.0241
16,ATGGCTCG,0.0101
17,CGACAAGA,0.106
18,ATCCTTCC,-0.2
19,CTCACTCA,0.0762
20,TGCGCGCA,0.14
21,ATAGGGAA,-0.0953
22,GGCACTCA,-0.309
23,AAGTGGGT,0.0634
24,AAGCGCGT,-0.0236
25,ACATTCGC,0.0422

# For convenience, some entries already given.
row,Sequence,PBM E-score
4,ATTTGGAC,0.0481
5,GCTACTAC,0.222
6,CGGTCATA,0.0647
7,AAGCACGT,0.109
8,GGTAGGAC,-0.121
9,AGGTCACG,-0.107
10,ATAGCGGC,0.00766
11,ATATTAGC,0.128
12,AATGACAC,0.115
13,CCTAGCAC,-0.215
14,CCGGACAG,-0.0739
15,CATAGAGA,0.0311
16,CAATTACA,0.242
17,ACCACCGC,-0.0868
18,AATGGCAA,0.0889
19,AGACGCTA,-0.199
20,CCCGGAAG,-0.0981
21,CCCGCCTC,-0.142
22,ACTATAGC,-0.138
23,CTGTACAC,-0.0408
24,ACGTTCAC,0.0656
25,CGGAAATC,0.137
1,CTCGACGC,0.0204
2,TAAGATTA,0.274
3,CCAGATGG,-0.193
4,CCATCTAC,0.0768
5,CGCAAAGA,0.143
6,ATTAATGC,0.19
7,ACCCGCTC,-0.209
8,GAATGCAC,0.0534
9,CACAAGAG,-0.00984
10,ATGGATCG,0.0514
11,GCTGCTCA,-0.141
12,AGAACTAC,0.0709
13,CACCGCTG,-0.298
14,GAAGCCAA,-0.0726
15,CAGCATGC,-0.0241
16,ATGGCTCG,0.0101
17,CGACAAGA,0.106
18,ATCCTTCC,-0.2
19,CTCACTCA,0.0762
20,TGCGCGCA,0.14
21,ATAGGGAA,-0.0953
22,GGCACTCA,-0.309
23,AAGTGGGT,0.0634
24,AAGCGCGT,-0.0236

# Later entries

row,Sequence,PBM E-score
1,AAGAGTAG,-0.0354
2,ACCAACGT,0.0694
3,CGTGAAGC,-0.158
4,TGAGGAAA,-0.0184
5,ACGGCTAC,-0.0179
6,CCGGACCC,-0.179
7,CAGTTAAG,0.156
8,AAGGACGC,-0.0754
9,ATGAAAAA,0.252
10,ACCGGTCT,-0.26
11,AGTTTCAG,-0.0868
12,GACAACGA,0.0629
13,ATCAATAC,0.121
14,GAGATGCC,-0.00921
15,CCCTTATC,-0.0375
16,TAGGTCGA,-0.065
17,CTGTGAAC,-0.0835
18,CTTTAGCC,0.0446
19,GGCCCCTA,-0.237
20,ATAGTGGA,0.145
21,CATCGTGA,-0.166
22,CGTTCGTC,0.0235
23,ATACAACA,0.272
24,GTAGGCTA,-0.196
25,AGAGCTCC,-0.315

row,Sequence,PBM E-score
1,ACAAACGG,0.105
2,ACTCACTA,0.169
3,ATCGGCAG,-0.109
4,GTAGATCA,0.108
5,GAGATAAC,0.0518
6,GTAAGTAA,0.24
7,CGAGTAGC,-0.0354
8,ATACAGAC,0.0865
9,ATAGAGAC,-0.0684
10,CTTATTCC,0.117
11,AGCTTCAC,-0.101
12,CGGCGACC,-0.112
13,TACCTGGA,0.0158
14,AAAAGATC,-0.00227
15,TGAAGTAA,0.158
16,ACTTAACC,0.0892
17,GAGCTCCC,-0.17
18,ATCAGGAG,-0.00213
19,AGCGCCAC,-0.0305
20,ACGCGCTC,-0.0527
21,CACCATGG,-0.229
22,GTAATCTA,0.354
23,ATCTACAA,0.00821
24,ACATGCGC,0.0846
25,AAGGGGAC,-0.178

row,Sequence,PBM E-score
1,TGCTATAA,0.0502
2,AATAAATT,0.19
3,AAGTGGAC,-0.0963
4,ATAGTGAG,0.0474
5,CACATGCA,-0.0466
6,CCCTGTCG,-0.196
7,ATCAGGTA,0.0912
8,AGCCTAAA,-0.0722
9,GCTATACC,0.0123
10,AGCACCTG,-0.215
11,CGCTCACC,-0.0238
12,ACCTGCCC,-0.155
13,AATGCCAA,0.0585
14,AAACAAGC,0.0602
15,AACGGTCC,-0.219
16,GTTACGGA,-0.122
17,TACTCGCA,0.182
18,AAGCTACC,0.106
19,ACACTCAA,0.178
20,GGCCCGAC,-0.256
21,AACTCTTA,0.0306
22,CGCACCGC,-0.189
23,ATCGAGGA,0.0713
24,ATGTATTA,0.233
25,GACATCGA,-0.221

row,Sequence,PBM E-score
1,ACTCTCTG,0.0311
2,ATTTGTTC,0.307
3,CGCACGCC,-0.0827
4,GGTCGTAA,-0.00186
5,AAGGTGCG,-0.159
6,GCTGTACC,-0.0973
7,CCGGGACA,-0.059
8,AGGATTAG,0.0904
9,AAAGCAGT,0.177
10,GAGACAAC,0.136
11,ACTCAGAA,0.105
12,AGGTTAAT,-0.0001
13,CAGACCTG,-0.0611
14,AACGAGGG,-0.149
15,CTTATCTC,0.0536
16,GAGTGTCC,0.0618
17,AATAACCT,0.061
18,AGGCATAC,0.0609
19,ACATTCAA,0.0897
20,CGGAATGC,0.19
21,ACGTCACG,0.0314
22,AATGGCCC,-0.253
